In patent US6709838:
These are yes or no findings as the source states them, for the method shown. Binding seen in cells or lysates may run through a third protein. Some entries that bind do so weakly or less than the wild type. Sequences can lack the tags named with a protein.

By UniProt entry, the sequences of proteins in these tests, tags left out. Where a name states a change or a piece, a line headed by the entry shows the natural chain unless it says otherwise.
UniProt P97698: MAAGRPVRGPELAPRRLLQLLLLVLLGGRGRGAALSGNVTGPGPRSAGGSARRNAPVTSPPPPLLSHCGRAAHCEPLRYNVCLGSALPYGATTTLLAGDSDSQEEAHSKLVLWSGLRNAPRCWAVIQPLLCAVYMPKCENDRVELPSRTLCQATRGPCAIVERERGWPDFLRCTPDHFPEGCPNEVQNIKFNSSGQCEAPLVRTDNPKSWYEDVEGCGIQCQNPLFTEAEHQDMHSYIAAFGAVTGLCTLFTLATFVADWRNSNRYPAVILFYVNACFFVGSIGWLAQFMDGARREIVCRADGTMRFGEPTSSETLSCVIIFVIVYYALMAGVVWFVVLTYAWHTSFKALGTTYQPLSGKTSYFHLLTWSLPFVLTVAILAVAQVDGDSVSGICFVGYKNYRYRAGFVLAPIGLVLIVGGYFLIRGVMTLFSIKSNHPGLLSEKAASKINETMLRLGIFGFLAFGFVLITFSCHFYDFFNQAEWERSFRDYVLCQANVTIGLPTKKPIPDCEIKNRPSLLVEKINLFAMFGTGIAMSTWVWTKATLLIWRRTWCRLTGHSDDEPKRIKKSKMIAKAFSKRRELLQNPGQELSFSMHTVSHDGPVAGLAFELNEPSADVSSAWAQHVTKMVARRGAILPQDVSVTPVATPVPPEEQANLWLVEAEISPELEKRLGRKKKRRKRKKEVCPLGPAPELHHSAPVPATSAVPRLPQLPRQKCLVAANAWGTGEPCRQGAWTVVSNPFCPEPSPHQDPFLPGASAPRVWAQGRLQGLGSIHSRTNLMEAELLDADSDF

Tests used:
[1] = molecular target: myc-epitope tagged Smo (SEQ ID NO:15) (Rattus norvegicus (Rat)) (UniProt P97698); assay: co-immunoprecipitation, co-transfected 293 cells
[2] = molecular target: myc-epitope tagged Smo (SEQ ID NO:15) (Rattus norvegicus (Rat)) (UniProt P97698); assay: co-immunoprecipitation (summary of Example 1)
[3] = molecular target: myc-epitope tagged Smo (SEQ ID NO:15) (Rattus norvegicus (Rat)) (UniProt P97698); assay: co-immunoprecipitation and western blot, co-transfected 293 cells (FIG. 7B legend)
[4] = molecular target: myc-epitope tagged Smo (SEQ ID NO:15) (Rattus norvegicus (Rat)) (UniProt P97698); assay: co-immunoprecipitation with 9E10 anti-myc or M2 anti-FLAG, western blot

Measured: binding

B1: Flag-tagged Ptch-2 (SEQ ID NO:2) (receptor, not shown: small tags and cut ends)
chain: MTRSPPLRELPPSYTPPARTAAPQILAGSLKAPLWLRAYFQGLLFSLGCGIQRHCGKVLFLGLLAFGALALGLRMAIIETNLEQLWVEVGSRVSQELHYTKEKLGEEAAYTSQMLIQTARQEGENILTPEALGLHLQAALTASKVQVSLYGKSWDLNKICYKSGVPLIENGMIEWMIEKLFPCVILTPLDCFWEGAKLQGGSAYLPGRPDIQWTNLDPEQLLEELGPFASLEGFRELLDKAQVGQAYVGRPCLHPDDLHCPPSAPNHHSRQAPNVAHELSGGCHGFSHKFMHWQEELLLGGMARDPQGELLRAEALQSTFLLMSPRQLYEHFRGDYQTHDIGWSEEQASTVLQAWQRRFVQLAQEALPENASQQIHAFSSTTLDDILHAFSEVSAARVVGGYLLMLAYACVTMLRWDCAQSQGSVGLAGVLLVALAVASGLGLCALLGITFNAATTQVLPFLALGIGVDDVFLLAHAFTEALPGTPLQERMGECLQRTGTSVVLTSINNMAAFLMAALVPIPALRAFSLQAAIVVGCTFVAVMLVFPAILSLDLRRRHCQRLDVLCCFSSPCSAQVIQILPQELGDGTVPVGIAHLTATVQAFTHCEASSQHVVTILPPQAHLVPPPSDPLGSELFSPGGSTRDLLGQEEETRQKAACKSLPCARWNLAHFARYQFAPLLLQSHAKAIVLVLFGALLGLSLYGATLVQDGLALTDVVPRGTKEHAFLSAQLRYFSLYEVALVTQGGFDYAHSQRALFDLHQRFSSLKAVLPPPATQAPRTWLHYYRNWLQGIQAAFDQDWASGRITRHSYRNGSEDGALAYKLLIQTGDAQEPLDFSQLTTRKLVDREGLIPPELFYMGLTVWVSSDPLGLAASQANFYPPPPEWLHDKYDTTGENLRIPPAQPLEFAQFPFLLRGLQKTADFVEAIEGARAACAEAGQAGVHAYPSGSPFLFWEQYLGLRRCFLLAVCILLVCTFLVCALLLLNPWTAGLIVLVLAMMTVELFGIMGFLGIKLSAIPVVILVASVGIGVEFTVHVALGFLTTQGSRNLRAAHALEHTFAPVTDGAISTLLGLLMLAGSHFDFIVRYFFAALTVLTLLGLLHGLVLLPVLLSILGPPPEVIQMYKESPEILSPPAPQGGGLRWGASSSLPQSFARVTTSMTVAIHPPPLPGAYIHPAPDEPPWSPAATSSGNLSSRGPGPATG
binds: all assays above
